In experiment [1] the target is 3xFLAG-AMBRA1 (UniProt Q9C0C7). Nature of the experiment: co-IP; anti-FLAG immunoprecipitation from lysates of ATRT cell lines expressing AMBRA1-FLAG, western blot; MLN4924-treated cells; results told for the cell lines together or for CHLA266 (AMBRA1 responder). (In western blotting, separated proteins are transferred to a membrane and probed.)
Experiment [2] deals with 3xFLAG-AMBRA1 (UniProt Q9C0C7). Nature of the experiment: condition: only in BT12 cells (AMBRA1 non-responder); co-IP; anti-FLAG immunoprecipitation from lysate of BT12 cells (AMBRA1 non-responder) expressing AMBRA1-FLAG, western blot.
The target of experiment [3] is 3xFLAG-AMBRA1 (UniProt Q9C0C7). In words: co-IP; anti-FLAG immunoprecipitation from lysates of ATRT cell lines expressing AMBRA1-FLAG, western blot; MLN4924-treated cells; results told for the cell lines together or for CHLA266 (AMBRA1 responder). The source holds these as a separate data set.

Sequences of proteins named here, by UniProt entry; tags and fusion partners are left off.
UniProt Q9C0C7: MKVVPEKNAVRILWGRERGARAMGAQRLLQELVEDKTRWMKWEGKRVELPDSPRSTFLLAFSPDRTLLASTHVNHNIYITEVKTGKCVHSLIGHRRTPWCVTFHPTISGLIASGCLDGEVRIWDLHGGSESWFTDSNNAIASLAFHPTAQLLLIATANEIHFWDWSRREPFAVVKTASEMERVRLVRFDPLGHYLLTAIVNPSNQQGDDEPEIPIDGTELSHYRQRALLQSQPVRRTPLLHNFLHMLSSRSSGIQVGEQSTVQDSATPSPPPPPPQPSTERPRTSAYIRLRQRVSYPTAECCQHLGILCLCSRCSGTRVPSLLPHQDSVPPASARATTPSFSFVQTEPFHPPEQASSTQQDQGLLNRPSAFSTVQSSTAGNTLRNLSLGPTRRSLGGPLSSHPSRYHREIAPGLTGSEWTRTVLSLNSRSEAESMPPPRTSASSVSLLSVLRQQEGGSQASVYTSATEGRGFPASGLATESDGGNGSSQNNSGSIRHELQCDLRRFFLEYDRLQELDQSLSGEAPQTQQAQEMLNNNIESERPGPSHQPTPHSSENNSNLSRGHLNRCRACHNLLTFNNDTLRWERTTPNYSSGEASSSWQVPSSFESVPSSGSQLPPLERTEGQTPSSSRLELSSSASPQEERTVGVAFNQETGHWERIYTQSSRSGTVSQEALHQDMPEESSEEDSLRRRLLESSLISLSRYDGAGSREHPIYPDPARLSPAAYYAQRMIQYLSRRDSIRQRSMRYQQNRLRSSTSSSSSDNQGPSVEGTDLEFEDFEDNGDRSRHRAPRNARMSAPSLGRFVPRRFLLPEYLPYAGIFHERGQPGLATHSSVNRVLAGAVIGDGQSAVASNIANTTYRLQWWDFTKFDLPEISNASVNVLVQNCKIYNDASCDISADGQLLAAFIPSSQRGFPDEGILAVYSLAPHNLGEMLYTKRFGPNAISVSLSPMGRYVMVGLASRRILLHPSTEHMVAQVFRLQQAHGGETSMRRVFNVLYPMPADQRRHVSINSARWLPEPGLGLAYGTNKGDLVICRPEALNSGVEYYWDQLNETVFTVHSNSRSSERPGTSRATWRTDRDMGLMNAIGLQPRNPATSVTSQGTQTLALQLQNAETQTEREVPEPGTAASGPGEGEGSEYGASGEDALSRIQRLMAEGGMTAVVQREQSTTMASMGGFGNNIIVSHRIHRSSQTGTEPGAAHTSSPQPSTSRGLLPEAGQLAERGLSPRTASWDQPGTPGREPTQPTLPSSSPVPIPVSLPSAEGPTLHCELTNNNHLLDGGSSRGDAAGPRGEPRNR
UniProt Q96GD4: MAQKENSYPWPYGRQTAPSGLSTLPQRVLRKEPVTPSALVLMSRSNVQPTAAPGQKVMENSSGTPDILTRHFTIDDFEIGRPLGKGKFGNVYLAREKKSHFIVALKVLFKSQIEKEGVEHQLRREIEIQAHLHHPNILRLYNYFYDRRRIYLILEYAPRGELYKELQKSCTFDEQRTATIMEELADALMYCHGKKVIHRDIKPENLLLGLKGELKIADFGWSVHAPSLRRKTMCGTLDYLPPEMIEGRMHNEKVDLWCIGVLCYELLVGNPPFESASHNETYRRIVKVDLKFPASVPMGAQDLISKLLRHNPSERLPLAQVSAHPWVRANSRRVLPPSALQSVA

No constants are given. Whether binding was seen depends on the method and setting. In cells and extracts the contact can be indirect. Some results given as binding are weak or reduced against the parent protein; the word gives no strength.

With AURKB (from UniProt Q96GD4 1-344), the figures for the binding result in experiment [1] and in experiment [2] were “binds weakly” and “no binding”, respectively.

B1: AURKA (protein, UniProt O14965 1-403)
chain: MDRSKENCISGPVKATAPVGGPKRVLVTQQFPCQNPLPVNSGQAQRVLCPSNSSQRIPLQAQKLVSSHKPVQNQKQKQLQATSVPHPVSRPLNNTQKSKQPLPSAPENNPEEELASKQKNEESKKRQWALEDFEIGRPLGKGKFGNVYLAREKQSKFILALKVLFKAQLEKAGVEHQLRREVEIQSHLRHPNILRLYGYFHDATRVYLILEYAPLGTVYRELQKLSKFDEQRTATYITELANALSYCHSKRVIHRDIKPENLLLGSAGELKIADFGWSVHAPSSRRTTLCGTLDYLPPEMIEGRMHDEKVDLWSLGVLCYEFLVGKPPFEANTYQETYKRISRVEFTFPDFVTEGARDLISRLLKHNPSQRPMLREVLEHPWITANSSKPSNCQNKESASKQS
As for B1, the binding entry in experiment [3] is “binds”; in experiment [2], “no binding”.

The values above are taken from PMC11610224.
